Experimental data from patent publication US20070166774A1, “Functional immunoassay” (priority 2006, published 2007).
At least one structure is not confirmed: it was looked up by name or label, or the drawing left a doubt.

Tests used:
antibody (anti-iohexol) = experiment: Immunoassay of iohexol, standard curve (HRP-conjugate, microtiter plate); format: binding, rabbit
[1] = tested on: antibody (anti-iodohippurate); experiment: Immunoassay of iodohippurate, standard curve (HRP-iodohippurate conjugate, microtiter plate); format: binding, rabbit

| SMILES | Optical density, 450 nm (antibody (anti-iohexol); Iohexol concentration 1 × 10−2 M) | Optical density, 450 nm (antibody (anti-iohexol); Iohexol concentration 1 × 10−3 M) | Optical density, 450 nm (antibody (anti-iohexol); Iohexol concentration 1 × 10−4 M) | Optical density, 450 nm (antibody (anti-iohexol); Iohexol concentration 1 × 10−5 M) | Optical density, 450 nm (antibody (anti-iohexol); Iohexol concentration 1 × 10−6 M) | Optical density, 450 nm (antibody (anti-iohexol); Iohexol concentration 5 × 10−5 M) | Optical density, 450 nm (antibody (anti-iohexol); Iohexol concentration 5 × 10−6 M) | Optical density, 450 nm ([1]; Iodohippurate concentration 1 × 10^−4 M) | Optical density, 450 nm ([1]; Iodohippurate concentration 1 × 10^−5 M) | Optical density, 450 nm ([1]; Iodohippurate concentration 1 × 10^−6 M) | Optical density, 450 nm ([1]; Iodohippurate concentration 1 × 10^−7 M) | Optical density, 450 nm ([1]; Iodohippurate concentration 1 × 10^−8 M) |
| --- | --- | --- | --- | --- | --- | --- | --- | --- | --- | --- | --- | --- |
| CC(=O)N(CC(O)CO)c1c(I)c(C(=O)NCC(O)CO)c(I)c(C(=O)NCC(O)CO)c1I (stereo not drawn) [Iohexol, iohexol] | 0.06 | 0.09 | 0.21 | 0.90 | 1.63 | 0.55 | 1.23 | – | – | – | – | – |
| O=C(O)CNC(=O)c1ccccc1I [Iodohippurate, sodium iodohippurate] | – | – | – | – | – | – | – | 0.49 | 0.55 | 0.74 | 1.02 | 1.14 |
